The values that follow come from the supplement of paper PMC12819154, “High-throughput peptide-centric local stability assay extends protein–ligand identification to membrane proteins, tissues and bacteria” (Nature Structural & Molecular Biology, 2025).

Amino acid sequences for entries named in this document (tags omitted). A change or cut given only in a name is not applied to a line headed by its entry.
UniProt Q9D8T7: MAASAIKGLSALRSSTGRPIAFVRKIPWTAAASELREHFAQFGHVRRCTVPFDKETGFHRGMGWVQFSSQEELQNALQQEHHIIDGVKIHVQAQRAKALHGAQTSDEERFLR
UniProt Q9DAS9: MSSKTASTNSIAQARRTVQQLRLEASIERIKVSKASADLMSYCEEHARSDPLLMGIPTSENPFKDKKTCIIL
UniProt Q9D0I4: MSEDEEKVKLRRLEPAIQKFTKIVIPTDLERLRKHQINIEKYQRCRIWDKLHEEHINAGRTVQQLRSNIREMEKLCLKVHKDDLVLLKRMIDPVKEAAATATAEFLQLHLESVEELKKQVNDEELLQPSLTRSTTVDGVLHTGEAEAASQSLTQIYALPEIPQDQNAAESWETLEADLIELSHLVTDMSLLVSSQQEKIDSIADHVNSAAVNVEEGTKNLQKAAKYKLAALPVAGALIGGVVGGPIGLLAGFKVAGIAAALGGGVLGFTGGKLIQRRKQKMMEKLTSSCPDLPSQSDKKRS
UniProt Q9DBG5: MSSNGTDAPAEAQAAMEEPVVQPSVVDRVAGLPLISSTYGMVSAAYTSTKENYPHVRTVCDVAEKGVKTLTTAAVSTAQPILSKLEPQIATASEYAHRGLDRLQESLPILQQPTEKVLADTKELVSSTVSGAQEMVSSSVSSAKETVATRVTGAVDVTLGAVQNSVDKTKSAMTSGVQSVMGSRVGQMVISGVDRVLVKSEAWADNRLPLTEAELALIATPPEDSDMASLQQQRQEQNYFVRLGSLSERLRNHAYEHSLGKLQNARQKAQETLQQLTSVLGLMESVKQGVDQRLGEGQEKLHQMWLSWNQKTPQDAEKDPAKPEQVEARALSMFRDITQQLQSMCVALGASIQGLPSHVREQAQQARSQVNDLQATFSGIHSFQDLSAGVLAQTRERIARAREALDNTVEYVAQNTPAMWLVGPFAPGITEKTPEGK
UniProt Q9DBB8: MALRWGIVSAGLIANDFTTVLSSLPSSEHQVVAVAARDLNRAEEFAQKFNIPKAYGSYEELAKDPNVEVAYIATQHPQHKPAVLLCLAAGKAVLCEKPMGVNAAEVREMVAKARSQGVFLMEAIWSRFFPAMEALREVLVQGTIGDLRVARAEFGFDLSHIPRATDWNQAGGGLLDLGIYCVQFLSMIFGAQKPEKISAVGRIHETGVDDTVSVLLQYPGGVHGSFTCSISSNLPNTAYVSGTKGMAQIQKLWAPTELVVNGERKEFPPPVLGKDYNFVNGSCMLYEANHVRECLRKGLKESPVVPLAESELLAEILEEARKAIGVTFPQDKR
UniProt Q9CYZ2: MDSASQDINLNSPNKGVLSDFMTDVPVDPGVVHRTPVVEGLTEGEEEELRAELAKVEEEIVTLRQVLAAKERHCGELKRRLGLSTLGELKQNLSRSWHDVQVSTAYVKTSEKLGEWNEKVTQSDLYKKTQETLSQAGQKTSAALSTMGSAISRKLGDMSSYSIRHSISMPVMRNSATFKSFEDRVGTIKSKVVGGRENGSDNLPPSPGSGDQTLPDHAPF
UniProt Q9CXN7: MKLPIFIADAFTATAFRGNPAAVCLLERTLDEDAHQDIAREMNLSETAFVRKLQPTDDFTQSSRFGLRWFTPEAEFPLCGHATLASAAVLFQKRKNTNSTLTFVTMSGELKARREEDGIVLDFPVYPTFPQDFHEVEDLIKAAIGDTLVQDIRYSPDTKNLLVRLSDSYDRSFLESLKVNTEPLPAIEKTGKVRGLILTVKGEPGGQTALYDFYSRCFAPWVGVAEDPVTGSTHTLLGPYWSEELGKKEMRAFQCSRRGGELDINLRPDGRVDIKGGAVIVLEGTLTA
UniProt Q9CYV5: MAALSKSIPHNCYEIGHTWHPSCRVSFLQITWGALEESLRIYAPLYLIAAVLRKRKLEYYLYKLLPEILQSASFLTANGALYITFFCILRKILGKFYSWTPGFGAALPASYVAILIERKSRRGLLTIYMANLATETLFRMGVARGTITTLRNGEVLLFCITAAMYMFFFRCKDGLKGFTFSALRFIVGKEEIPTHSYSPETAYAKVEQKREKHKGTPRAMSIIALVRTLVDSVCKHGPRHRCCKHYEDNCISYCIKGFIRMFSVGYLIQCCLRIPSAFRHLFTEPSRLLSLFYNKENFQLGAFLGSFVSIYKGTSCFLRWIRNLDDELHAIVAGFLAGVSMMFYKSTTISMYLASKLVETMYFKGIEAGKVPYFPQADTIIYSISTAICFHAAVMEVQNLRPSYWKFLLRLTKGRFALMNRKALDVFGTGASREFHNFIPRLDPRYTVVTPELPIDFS
UniProt Q9D7P6: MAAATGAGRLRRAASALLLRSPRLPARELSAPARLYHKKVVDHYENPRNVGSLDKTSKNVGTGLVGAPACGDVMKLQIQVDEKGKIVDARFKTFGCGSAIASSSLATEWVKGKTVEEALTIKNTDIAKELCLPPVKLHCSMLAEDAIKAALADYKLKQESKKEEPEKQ
UniProt Q9D772: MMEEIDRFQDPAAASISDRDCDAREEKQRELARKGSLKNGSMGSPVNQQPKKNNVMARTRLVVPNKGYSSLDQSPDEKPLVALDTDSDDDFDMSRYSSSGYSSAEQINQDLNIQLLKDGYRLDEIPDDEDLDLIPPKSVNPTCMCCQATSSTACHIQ
UniProt Q9D938: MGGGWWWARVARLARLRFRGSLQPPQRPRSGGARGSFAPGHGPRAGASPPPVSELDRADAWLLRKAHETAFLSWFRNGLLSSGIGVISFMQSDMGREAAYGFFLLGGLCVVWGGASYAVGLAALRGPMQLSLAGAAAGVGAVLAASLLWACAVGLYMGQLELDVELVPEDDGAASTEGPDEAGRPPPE
UniProt Q9D2R0: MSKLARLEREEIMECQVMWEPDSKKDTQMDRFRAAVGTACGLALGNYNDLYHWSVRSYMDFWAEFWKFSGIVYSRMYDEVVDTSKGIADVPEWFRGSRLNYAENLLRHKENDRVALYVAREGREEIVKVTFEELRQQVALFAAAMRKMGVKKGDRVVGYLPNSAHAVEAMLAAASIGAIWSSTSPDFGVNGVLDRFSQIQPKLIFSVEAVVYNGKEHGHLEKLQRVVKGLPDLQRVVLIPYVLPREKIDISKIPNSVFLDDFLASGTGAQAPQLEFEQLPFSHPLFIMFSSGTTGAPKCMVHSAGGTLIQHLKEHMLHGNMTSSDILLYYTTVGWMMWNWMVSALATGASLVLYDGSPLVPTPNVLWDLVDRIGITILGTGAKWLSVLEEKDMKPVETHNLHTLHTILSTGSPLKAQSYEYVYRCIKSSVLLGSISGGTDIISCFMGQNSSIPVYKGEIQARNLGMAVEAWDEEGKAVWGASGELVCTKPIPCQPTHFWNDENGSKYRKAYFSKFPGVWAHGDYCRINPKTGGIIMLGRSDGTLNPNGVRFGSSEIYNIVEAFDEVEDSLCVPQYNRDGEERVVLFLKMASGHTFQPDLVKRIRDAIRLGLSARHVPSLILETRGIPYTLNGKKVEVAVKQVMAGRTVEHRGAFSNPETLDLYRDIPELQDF
UniProt Q9D1A2: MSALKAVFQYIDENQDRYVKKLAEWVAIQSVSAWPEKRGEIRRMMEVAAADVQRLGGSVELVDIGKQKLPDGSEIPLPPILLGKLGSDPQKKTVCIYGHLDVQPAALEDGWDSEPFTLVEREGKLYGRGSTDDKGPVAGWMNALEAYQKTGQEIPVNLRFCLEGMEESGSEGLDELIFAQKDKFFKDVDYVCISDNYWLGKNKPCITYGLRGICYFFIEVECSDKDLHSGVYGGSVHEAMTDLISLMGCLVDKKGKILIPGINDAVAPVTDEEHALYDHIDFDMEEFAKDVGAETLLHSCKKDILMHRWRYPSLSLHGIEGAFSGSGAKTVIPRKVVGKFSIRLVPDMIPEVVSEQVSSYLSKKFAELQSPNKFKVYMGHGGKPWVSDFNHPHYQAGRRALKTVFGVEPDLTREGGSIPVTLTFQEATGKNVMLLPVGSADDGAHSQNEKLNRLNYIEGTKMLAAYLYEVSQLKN
UniProt Q9CZN8: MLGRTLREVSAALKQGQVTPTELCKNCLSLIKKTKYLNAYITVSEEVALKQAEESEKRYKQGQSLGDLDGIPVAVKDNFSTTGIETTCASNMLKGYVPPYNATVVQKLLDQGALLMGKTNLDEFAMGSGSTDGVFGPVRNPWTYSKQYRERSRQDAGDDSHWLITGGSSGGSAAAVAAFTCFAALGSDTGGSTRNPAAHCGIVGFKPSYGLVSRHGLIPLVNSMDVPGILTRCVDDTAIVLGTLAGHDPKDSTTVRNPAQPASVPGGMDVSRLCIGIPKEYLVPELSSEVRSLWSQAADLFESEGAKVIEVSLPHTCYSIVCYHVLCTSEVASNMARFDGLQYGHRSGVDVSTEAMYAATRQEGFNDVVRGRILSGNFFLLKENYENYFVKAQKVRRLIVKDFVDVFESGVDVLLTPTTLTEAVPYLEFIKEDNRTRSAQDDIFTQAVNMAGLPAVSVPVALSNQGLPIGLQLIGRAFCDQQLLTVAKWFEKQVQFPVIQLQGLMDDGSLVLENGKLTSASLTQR
UniProt Q9DBL7: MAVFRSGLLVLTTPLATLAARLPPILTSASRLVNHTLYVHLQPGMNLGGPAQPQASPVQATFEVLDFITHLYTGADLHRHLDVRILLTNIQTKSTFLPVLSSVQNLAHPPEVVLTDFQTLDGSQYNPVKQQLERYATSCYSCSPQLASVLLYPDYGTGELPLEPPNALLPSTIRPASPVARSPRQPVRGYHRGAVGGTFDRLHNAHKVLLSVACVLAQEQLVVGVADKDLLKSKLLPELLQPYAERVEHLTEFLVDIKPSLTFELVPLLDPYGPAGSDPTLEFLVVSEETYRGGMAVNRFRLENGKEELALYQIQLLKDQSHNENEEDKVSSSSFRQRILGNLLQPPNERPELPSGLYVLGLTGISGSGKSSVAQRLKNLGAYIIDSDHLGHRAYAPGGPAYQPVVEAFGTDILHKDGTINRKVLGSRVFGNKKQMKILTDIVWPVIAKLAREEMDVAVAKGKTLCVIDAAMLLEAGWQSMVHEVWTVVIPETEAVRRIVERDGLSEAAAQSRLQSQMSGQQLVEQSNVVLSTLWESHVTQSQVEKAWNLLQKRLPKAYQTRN
UniProt Q9D6W8: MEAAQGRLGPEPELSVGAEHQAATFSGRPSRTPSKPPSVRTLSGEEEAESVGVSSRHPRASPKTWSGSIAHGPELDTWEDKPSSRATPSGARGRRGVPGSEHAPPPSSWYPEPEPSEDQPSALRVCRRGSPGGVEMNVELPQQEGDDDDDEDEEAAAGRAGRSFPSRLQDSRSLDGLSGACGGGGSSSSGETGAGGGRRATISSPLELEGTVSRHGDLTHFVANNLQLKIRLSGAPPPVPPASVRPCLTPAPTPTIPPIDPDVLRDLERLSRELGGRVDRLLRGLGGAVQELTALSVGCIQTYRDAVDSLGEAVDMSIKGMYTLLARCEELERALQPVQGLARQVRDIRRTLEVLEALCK
UniProt Q9D8U8: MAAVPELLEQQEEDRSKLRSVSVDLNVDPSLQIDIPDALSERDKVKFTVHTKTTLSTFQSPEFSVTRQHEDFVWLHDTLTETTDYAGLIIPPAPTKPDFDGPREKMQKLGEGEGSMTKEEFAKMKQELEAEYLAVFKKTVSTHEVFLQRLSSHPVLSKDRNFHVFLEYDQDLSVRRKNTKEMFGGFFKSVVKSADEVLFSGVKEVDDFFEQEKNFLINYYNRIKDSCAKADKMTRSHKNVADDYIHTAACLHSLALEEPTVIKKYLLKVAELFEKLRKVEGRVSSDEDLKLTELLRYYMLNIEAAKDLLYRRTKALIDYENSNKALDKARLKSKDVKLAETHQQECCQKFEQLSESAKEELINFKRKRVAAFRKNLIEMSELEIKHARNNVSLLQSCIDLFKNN
UniProt Q9D0D5: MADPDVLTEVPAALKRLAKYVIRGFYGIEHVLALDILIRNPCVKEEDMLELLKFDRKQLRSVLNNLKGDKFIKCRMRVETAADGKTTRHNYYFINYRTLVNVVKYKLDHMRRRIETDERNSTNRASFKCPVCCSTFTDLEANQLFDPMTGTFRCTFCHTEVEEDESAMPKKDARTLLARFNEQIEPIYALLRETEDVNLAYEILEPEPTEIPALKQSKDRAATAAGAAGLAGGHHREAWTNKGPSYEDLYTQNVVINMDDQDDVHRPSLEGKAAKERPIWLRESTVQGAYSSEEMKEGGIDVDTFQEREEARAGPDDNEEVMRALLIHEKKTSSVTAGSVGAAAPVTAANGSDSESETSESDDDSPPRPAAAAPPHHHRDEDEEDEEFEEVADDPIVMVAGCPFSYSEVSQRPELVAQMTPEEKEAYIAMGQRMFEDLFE
UniProt Q9D110: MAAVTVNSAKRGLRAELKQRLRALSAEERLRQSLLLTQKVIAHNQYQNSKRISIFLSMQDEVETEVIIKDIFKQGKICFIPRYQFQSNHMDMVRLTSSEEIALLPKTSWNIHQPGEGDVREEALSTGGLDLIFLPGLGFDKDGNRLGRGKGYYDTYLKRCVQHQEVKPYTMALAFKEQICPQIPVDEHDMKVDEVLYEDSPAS
UniProt Q9D7X8: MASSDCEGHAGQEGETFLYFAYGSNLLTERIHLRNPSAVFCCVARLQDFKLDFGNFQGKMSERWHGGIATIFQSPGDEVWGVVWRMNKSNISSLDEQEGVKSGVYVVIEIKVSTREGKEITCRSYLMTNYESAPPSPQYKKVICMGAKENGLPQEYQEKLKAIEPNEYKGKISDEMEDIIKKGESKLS

This is one part of the list. Most values lie at the level of the controls, where differences are scatter.

Compound in the experiment: CN[C@@H]1C[C@H]2O[C@@](C)([C@@H]1OC)n1c3ccccc3c3c4c(c5c6ccccc6n2c5c31)C(=O)NC4 [staurosporine]
In words: log2 fold change of pooled soluble protein (PISA), ligand vs vehicle (log2 ratio); higher = more thermally stabilized. Conditions: ligand concentration: 20 uM; assay format: PISA pool 52.9/55.5/58.6 C.
As for UniProt Q9D8T7, the “log2 fold change of pooled soluble protein” value (shortened to “log2 fold change”) was -0.0912.

Take UniProt Q9DAS9: the “log2 fold change” value is 0.0277.

As for UniProt Q9D0I4, the “log2 fold change” value came out at 0.159.

For the target UniProt Q9D7I5, the “log2 fold change” value is -0.0377.

Take UniProt Q9D0F9: the “log2 fold change” value is 0.0103.

On to UniProt Q9D6J3, for which the “log2 fold change” value came to 0.0891.

For UniProt Q9DBG5, the “log2 fold change” value is 0.0234.

For UniProt Q9D8E6, the “log2 fold change” value is -0.227.

For the target UniProt Q9DB43, the “log2 fold change” value was -0.0244.

On to UniProt Q9DBB8, for which the “log2 fold change” value stood at 0.0614.

With UniProt Q9CYZ2, the “log2 fold change” value stood at 0.0465.

With UniProt Q9CXN7, the “log2 fold change” value worked out at 0.0262.

For UniProt Q9CYV5, the “log2 fold change” value is -0.031.

As for UniProt Q9D7P6, the “log2 fold change” value is -0.0224.

In the case of UniProt Q9D772, the “log2 fold change” value is 0.44.

Take UniProt Q9D938: the “log2 fold change” value was -0.0897.

As for UniProt Q9CY45, the “log2 fold change” value was -0.15.

With UniProt Q9D2R0, the “log2 fold change” value turned out to be 0.000379.

For UniProt Q9D1H8, the “log2 fold change” value is -0.101.

In the case of UniProt Q9D662, the “log2 fold change” value came to 0.0103.

UniProt Q9D1A2: the “log2 fold change” value was -0.182.

As to UniProt Q9D384, the “log2 fold change” value was -0.226.

For UniProt Q9D8X2, the “log2 fold change” value came out at 0.0209.

UniProt Q9CZN8: the “log2 fold change” value amounted to 0.369.

On to UniProt Q9D820, for which the “log2 fold change” value was -0.0378.

Consider UniProt Q9DBL7, for which the “log2 fold change” value was 0.0115.

As to UniProt Q9D6W8, the “log2 fold change” value turned out to be 0.117.

As to UniProt Q9D8U8, the “log2 fold change” value was -0.0186.

Regarding UniProt Q9CXK9, the “log2 fold change” value is -0.0853.

UniProt Q9D024: the “log2 fold change” value is -0.139.

Consider UniProt Q9D0B0, for which the “log2 fold change” value turned out to be 0.0148.

Turning to UniProt Q9D0A3, the “log2 fold change” value was found to be 0.005.

Consider UniProt Q9D0D5, for which the “log2 fold change” value stood at 0.464.

For the target UniProt Q9D110, the “log2 fold change” value was -0.0288.

UniProt Q9D7X8: the “log2 fold change” value worked out at 0.0498.

Turning to UniProt Q9DBZ5, the “log2 fold change” value was 0.0417.
